Our source for the binding values is article PMC8015235.

Sequences of proteins named here, by UniProt entry; tags and fusion partners are left off. Residues count along the entry.
UniProt P16474, residues 43-682: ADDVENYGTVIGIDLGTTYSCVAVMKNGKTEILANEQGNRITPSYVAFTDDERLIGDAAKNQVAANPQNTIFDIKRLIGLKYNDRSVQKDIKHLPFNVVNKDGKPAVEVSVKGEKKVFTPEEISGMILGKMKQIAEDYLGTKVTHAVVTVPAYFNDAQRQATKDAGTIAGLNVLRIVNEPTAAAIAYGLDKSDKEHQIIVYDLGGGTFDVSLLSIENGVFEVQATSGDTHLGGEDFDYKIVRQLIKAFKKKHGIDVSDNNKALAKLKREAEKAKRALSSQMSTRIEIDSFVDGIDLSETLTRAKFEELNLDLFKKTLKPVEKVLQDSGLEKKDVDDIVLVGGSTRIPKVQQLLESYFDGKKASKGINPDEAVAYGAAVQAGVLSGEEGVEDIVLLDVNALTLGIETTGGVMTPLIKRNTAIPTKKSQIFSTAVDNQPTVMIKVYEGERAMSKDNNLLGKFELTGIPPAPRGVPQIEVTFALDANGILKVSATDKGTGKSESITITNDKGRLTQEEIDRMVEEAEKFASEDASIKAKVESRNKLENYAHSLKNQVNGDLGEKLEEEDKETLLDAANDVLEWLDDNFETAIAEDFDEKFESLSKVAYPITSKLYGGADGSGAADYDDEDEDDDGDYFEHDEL
UniProt Q02630: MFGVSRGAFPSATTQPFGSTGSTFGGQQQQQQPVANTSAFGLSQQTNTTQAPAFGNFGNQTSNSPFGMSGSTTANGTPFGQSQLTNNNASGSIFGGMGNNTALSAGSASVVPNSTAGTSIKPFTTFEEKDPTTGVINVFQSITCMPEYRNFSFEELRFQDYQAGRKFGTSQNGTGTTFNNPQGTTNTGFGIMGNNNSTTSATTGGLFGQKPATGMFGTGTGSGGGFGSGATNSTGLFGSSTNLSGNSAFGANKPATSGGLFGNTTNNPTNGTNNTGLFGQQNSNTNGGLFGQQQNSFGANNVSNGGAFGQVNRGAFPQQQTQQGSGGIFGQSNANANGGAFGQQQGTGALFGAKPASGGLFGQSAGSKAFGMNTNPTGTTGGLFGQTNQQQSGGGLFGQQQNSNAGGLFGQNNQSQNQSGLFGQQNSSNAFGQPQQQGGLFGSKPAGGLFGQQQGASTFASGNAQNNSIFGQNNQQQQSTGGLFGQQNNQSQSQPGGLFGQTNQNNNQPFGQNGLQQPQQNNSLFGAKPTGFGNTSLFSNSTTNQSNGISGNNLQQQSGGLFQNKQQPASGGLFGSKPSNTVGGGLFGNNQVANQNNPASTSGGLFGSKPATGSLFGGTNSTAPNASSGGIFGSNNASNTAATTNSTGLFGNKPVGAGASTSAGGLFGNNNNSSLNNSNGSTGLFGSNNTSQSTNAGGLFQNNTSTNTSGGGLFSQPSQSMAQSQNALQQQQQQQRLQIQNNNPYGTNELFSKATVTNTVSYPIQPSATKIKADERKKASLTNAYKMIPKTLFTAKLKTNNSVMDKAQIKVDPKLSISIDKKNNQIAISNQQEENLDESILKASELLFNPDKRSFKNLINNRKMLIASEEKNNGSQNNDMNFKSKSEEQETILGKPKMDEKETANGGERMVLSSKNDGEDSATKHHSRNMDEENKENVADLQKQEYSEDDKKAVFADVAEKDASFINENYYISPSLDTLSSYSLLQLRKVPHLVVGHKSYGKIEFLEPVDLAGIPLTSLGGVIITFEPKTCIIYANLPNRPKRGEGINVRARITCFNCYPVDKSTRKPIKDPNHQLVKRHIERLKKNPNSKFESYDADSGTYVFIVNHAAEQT
UniProt P22137: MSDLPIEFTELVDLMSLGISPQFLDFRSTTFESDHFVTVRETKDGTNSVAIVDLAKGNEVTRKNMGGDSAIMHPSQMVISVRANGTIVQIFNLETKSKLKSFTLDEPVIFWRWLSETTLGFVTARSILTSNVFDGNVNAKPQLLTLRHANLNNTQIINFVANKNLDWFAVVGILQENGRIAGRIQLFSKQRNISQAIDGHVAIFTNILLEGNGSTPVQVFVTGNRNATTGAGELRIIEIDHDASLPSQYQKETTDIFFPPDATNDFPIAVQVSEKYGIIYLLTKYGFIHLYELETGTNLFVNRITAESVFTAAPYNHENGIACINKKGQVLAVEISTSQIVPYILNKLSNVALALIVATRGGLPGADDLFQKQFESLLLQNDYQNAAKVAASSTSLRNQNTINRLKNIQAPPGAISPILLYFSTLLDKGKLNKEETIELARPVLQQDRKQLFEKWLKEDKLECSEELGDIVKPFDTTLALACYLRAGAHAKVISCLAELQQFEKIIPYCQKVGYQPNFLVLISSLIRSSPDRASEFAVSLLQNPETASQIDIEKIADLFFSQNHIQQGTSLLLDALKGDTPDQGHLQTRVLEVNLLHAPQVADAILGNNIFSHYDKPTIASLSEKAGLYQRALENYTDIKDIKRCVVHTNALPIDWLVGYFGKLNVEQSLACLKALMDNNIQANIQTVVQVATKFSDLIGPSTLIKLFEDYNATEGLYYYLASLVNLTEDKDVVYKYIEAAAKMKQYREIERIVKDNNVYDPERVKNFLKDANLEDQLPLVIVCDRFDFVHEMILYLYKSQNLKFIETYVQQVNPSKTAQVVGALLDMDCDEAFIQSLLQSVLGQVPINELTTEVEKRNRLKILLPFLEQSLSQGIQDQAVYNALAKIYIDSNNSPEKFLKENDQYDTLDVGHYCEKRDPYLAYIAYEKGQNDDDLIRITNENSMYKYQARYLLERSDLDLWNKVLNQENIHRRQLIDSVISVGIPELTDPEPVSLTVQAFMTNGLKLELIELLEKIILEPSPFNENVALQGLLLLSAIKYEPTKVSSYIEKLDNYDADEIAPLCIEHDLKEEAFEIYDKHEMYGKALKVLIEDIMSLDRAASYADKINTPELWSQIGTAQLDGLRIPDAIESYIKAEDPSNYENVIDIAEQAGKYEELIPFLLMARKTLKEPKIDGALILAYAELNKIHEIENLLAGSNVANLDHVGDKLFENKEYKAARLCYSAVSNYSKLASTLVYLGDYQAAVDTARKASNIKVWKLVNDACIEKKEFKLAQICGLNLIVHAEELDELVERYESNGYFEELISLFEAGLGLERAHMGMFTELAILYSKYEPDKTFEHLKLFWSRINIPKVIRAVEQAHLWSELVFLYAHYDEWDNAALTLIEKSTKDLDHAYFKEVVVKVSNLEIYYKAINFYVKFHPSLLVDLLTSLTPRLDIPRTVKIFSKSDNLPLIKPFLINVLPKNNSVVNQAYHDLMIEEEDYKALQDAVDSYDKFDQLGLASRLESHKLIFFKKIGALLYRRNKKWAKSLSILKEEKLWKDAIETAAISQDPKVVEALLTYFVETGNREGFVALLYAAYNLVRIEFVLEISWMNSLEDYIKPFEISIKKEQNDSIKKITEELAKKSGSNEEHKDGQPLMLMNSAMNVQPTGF

Like-named read-outs stand apart in the source and are kept apart here. These are yes or no findings as the source states them, for the method shown. Binding seen in cells or lysates may run through a third protein. Some results given as binding are weak or reduced against the parent protein; the word gives no strength. Tags and fused reporters may be left off the sequences shown.

One assay addresses T1, Cex1-HA (S. cerevisiae) (UniProt Q12453).
T1 sequence: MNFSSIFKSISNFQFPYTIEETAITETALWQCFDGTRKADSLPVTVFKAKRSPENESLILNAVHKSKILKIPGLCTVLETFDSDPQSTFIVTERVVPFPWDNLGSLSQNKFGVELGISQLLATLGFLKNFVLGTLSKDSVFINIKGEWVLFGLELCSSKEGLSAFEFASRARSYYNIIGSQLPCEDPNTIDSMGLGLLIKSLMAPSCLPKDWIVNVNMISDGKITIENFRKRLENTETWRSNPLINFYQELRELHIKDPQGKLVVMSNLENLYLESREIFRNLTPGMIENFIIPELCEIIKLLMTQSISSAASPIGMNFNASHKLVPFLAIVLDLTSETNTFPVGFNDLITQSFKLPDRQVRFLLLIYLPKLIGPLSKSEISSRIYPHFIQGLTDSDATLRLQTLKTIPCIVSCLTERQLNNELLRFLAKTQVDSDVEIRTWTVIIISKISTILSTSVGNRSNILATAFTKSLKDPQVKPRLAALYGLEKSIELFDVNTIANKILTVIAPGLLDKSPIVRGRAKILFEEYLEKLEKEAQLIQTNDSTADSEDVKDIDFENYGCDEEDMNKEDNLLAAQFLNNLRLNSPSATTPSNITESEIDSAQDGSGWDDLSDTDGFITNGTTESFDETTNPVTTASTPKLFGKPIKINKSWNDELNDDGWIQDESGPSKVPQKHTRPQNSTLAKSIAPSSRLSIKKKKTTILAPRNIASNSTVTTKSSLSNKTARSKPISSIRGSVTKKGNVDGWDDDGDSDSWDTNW
In words: co-IP; lysates of cex1Δ+Cex1-HA precipitated with anti-HA, without antibodies as control; endogenous Kar2 and Chc1 detected with specific antibodies (Fig. S2B).

The target of assay [1] is T2, Sec27-Myc (S. cerevisiae) (UniProt P41811).
T2 sequence: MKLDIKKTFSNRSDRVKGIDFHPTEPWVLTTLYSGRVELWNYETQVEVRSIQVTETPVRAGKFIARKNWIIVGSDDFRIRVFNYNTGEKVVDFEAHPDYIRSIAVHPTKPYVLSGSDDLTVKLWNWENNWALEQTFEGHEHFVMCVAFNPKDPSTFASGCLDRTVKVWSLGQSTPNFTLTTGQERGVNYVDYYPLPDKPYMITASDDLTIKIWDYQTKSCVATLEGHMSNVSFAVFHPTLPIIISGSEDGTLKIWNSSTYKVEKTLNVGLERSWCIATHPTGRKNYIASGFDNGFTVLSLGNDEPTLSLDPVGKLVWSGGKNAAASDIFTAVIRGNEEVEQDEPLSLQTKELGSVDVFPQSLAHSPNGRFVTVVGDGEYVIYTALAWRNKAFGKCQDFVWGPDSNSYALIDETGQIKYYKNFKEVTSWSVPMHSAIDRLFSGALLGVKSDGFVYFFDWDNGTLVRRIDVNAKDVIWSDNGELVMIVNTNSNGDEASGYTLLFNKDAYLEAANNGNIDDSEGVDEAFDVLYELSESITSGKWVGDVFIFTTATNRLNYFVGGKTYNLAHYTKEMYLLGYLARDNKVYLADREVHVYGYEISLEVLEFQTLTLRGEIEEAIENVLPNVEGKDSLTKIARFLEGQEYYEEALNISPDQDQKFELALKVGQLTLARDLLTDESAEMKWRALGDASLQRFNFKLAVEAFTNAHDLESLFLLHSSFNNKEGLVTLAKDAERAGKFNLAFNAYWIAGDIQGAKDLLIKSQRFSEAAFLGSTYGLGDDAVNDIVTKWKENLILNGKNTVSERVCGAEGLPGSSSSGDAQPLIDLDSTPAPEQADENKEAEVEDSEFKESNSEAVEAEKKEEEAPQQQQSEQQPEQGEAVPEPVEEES
Put plainly: co-IP; lysates of cex1Δ+pHAC-CEX1+pAD6-MYC-SEC27 on Sepharose beads coated with anti-Myc, non-specific IgG as control; blots with anti-HA, anti-Nup116, anti-MYC; cells grown in fermentation conditions.

In assay [2] the target is T2, Sec27-Myc (S. cerevisiae). The assay is described as above. The source holds these as a separate data set.

As for Kar2/BiP (from UniProt P16474 43-682), in the assay with Cex1-HA (S. cerevisiae), the binding entry is given as “no binding”. Turning to Nup116 (from UniProt Q02630 1-1113), the binding entry in assay [1] was “binds weakly”.

Regarding “clathrin heavy chain Chc1 (from UniProt P22137 1-1653)”, the binding result with Cex1-HA (S. cerevisiae) was “no binding”.

B1: Cex1-HA (protein, UniProt Q12453 1-761)
chain: T1 sequence
Regarding B1, in assay [2], the binding entry is on record as “binds”.
